{
  "source": "patent US11891352B2",
  "about": "“Aminomethyl-functionalized denatonium derivatives, their preparation and use” (Julius-Maximilians-Universitaet Wuerzburg, priority 2018, dated 2024)",
  "key": {"[1]": {"experiment": "Taste testing with electronic tongue, sensor SB2AC0 (potential)"}, "[2]": {"experiment": "Taste testing with electronic tongue, sensor SB2AN0 (potential)"}, "[3]": {"conditions": "0.05 mM, Example 3 first measurement (FIG. 1), compound 2 acetylated on the free amino group"}, "[4]": {"conditions": "0.1 mM, Example 3 first measurement (FIG. 1), compound 2 acetylated on the free amino group"}, "[5]": {"conditions": "0.1 mM, Example 3 further measurement (FIG. 4), compound 2 acetylated"}, "[6]": {"conditions": "0.5 mM, Example 3 first measurement (FIG. 1), compound 2 acetylated on the free amino group"}, "[7]": {"conditions": "0.5 mM, Example 3 further measurement (FIG. 4), compound 2 acetylated"}, "[8]": {"conditions": "1.0 mM, Example 3 first measurement (FIG. 1), compound 2 acetylated on the free amino group"}, "[9]": {"conditions": "1 mM, Example 3 further measurement (FIG. 4), compound 2 acetylated"}, "[10]": {"conditions": "5 mM, Example 3 further measurement (FIG. 4), compound 2 acetylated"}, "[11]": {"conditions": "1 mM, Example 3 first measurement (FIG. 1), compound 2 acetylated on the free amino group"}, "[12]": {"conditions": "concentration printed only as \"mM\" (last point of range 0.1 mM to 5 mM), Example 3 further measurement (FIG. 4), compound 2 acetylated"}},
  "data": [
    {"compound": "SL10K: coupling product of compound 2 and the peptide GPQGIAGA (SEQ ID NO: 5), Example 6 (coupled to compound 2)", "values": [
      {"measurement": "potential, sensor SB2AC0", "setting": "[1]; 0.1 mM, Example 6 (FIG. 6)", "value": "−113", "unit": "mV"},
      {"measurement": "potential, sensor SB2AC0", "setting": "[1]; 0.5 mM, Example 6 (FIG. 6)", "value": "−114", "unit": "mV"},
      {"measurement": "potential, sensor SB2AC0", "setting": "[1]; 1.0 mM, Example 6 (FIG. 6)", "value": "−124", "unit": "mV"}
    ]},
    {"compound": "CC[N+](CC)(CC(=O)Nc1c(C)cccc1C)Cc1ccccc1", "note": "[denatonium benzoate, benzyldiethyl(2,6-xylyl-carbamoyl)methylammonium benzoate]", "values": [
      {"measurement": "potential, sensor SB2AC0", "setting": "[1]; [3]", "value": "−88", "unit": "mV"},
      {"measurement": "potential, sensor SB2AC0", "setting": "[1]; [4]", "value": "−85", "unit": "mV"},
      {"measurement": "potential, sensor SB2AC0", "setting": "[1]; [5]", "value": "−56", "unit": "mV"},
      {"measurement": "potential, sensor SB2AC0", "setting": "[1]; 0.1 mM, Example 6 (FIG. 6)", "value": "−107", "unit": "mV"},
      {"measurement": "potential, sensor SB2AC0", "setting": "[1]; [6]", "value": "−59", "unit": "mV"},
      {"measurement": "potential, sensor SB2AC0", "setting": "[1]; [7]", "value": "−45", "unit": "mV"},
      {"measurement": "potential, sensor SB2AC0", "setting": "[1]; 0.5 mM, Example 6 (FIG. 6)", "value": "−89", "unit": "mV"},
      {"measurement": "potential, sensor SB2AC0", "setting": "[1]; [8]", "value": "−44", "unit": "mV"},
      {"measurement": "potential, sensor SB2AC0", "setting": "[1]; [9]", "value": "−36", "unit": "mV"},
      {"measurement": "potential, sensor SB2AC0", "setting": "[1]; 1.0 mM, Example 6 (FIG. 6)", "value": "−73", "unit": "mV"},
      {"measurement": "potential, sensor SB2AC0", "setting": "[1]; [10]", "value": 11, "unit": "mV"},
      {"measurement": "potential, sensor SB2AN0", "setting": "[2]; [3]", "value": "−66", "unit": "mV"},
      {"measurement": "potential, sensor SB2AN0", "setting": "[2]; [4]", "value": "−64", "unit": "mV"},
      {"measurement": "potential, sensor SB2AN0", "setting": "[2]; [5]", "value": "−71", "unit": "mV"},
      {"measurement": "potential, sensor SB2AN0", "setting": "[2]; 0.1 mM, Example 6 (FIG. 6)", "value": "−120", "unit": "mV"},
      {"measurement": "potential, sensor SB2AN0", "setting": "[2]; [6]", "value": "−53", "unit": "mV"},
      {"measurement": "potential, sensor SB2AN0", "setting": "[2]; [7]", "value": "−58", "unit": "mV"},
      {"measurement": "potential, sensor SB2AN0", "setting": "[2]; 0.5 mM, Example 6 (FIG. 6)", "value": "−94", "unit": "mV"},
      {"measurement": "potential, sensor SB2AN0", "setting": "[2]; [11]", "value": "−42", "unit": "mV"},
      {"measurement": "potential, sensor SB2AN0", "setting": "[2]; [9]", "value": "−45", "unit": "mV"},
      {"measurement": "potential, sensor SB2AN0", "setting": "[2]; 1.0 mM, Example 6 (FIG. 6)", "value": "−75", "unit": "mV"},
      {"measurement": "potential, sensor SB2AN0", "setting": "[2]; [12]", "value": 12, "unit": "mV"}
    ]},
    {"compound": "CC[N+](CC)(CC(=O)Nc1c(C)cccc1C)Cc1ccc(CN)cc1", "note": "[compound 2]", "values": [
      {"measurement": "potential, sensor SB2AC0", "setting": "[1]; [3]", "value": "−89", "unit": "mV"},
      {"measurement": "potential, sensor SB2AC0", "setting": "[1]; [4]", "value": "−89", "unit": "mV"},
      {"measurement": "potential, sensor SB2AC0", "setting": "[1]; [5]", "value": "−58", "unit": "mV"},
      {"measurement": "potential, sensor SB2AC0", "setting": "[1]; [6]", "value": "−88", "unit": "mV"},
      {"measurement": "potential, sensor SB2AC0", "setting": "[1]; [7]", "value": "−56", "unit": "mV"},
      {"measurement": "potential, sensor SB2AC0", "setting": "[1]; [8]", "value": "−85", "unit": "mV"},
      {"measurement": "potential, sensor SB2AC0", "setting": "[1]; [9]", "value": "−54", "unit": "mV"},
      {"measurement": "potential, sensor SB2AC0", "setting": "[1]; [10]", "value": "−37", "unit": "mV"},
      {"measurement": "potential, sensor SB2AN0", "setting": "[2]; [3]", "value": "−66", "unit": "mV"},
      {"measurement": "potential, sensor SB2AN0", "setting": "[2]; [4]", "value": "−65", "unit": "mV"},
      {"measurement": "potential, sensor SB2AN0", "setting": "[2]; [5]", "value": "−73", "unit": "mV"},
      {"measurement": "potential, sensor SB2AN0", "setting": "[2]; [6]", "value": "−64", "unit": "mV"},
      {"measurement": "potential, sensor SB2AN0", "setting": "[2]; [7]", "value": "−68", "unit": "mV"},
      {"measurement": "potential, sensor SB2AN0", "setting": "[2]; [11]", "value": "−62", "unit": "mV"},
      {"measurement": "potential, sensor SB2AN0", "setting": "[2]; [9]", "value": "−65", "unit": "mV"},
      {"measurement": "potential, sensor SB2AN0", "setting": "[2]; [12]", "value": "−39", "unit": "mV"}
    ]}
  ]
}
